Measurements published in PubChem BioAssay AID504467 (National Center for Advancing Translational Sciences (NCATS), 2011).
The whole screen tested about 330,000 compounds, of which about 7,700 (2.3%) were called active. This list was built around the results that the source calls inconclusive (neither active nor inactive); the mix of calls is not that of the screen. The call rests on the fitted dose curve; in most records, active means well fitted inhibition curve with a large enough effect; inconclusive means small, poorly fitted or top-dose-only effect, or effect the other way; inactive means flat fitted curve, though single readings scatter. Potencies beside an inconclusive call are fits to weak or partial responses and may not hold up.

assay: qHTS screen for small molecules that inhibit ELG1-dependent DNA repair in human embryonic kidney (HEK293T) cells expressing luciferase-tagged ELG1; conditions: HEK293T ELG1-luciferase reporter, luminescence, 16 h, DNA damage induced by 5-fluorouridine; series mostly up to 46.1 µM; further: nearly all actives have a fitted effect of over 55% in size
Summary of the method: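 Step one: seed 2,000 cells per well. Step two: pin-transfer compound or DMSO alongside 5-fluorouridine. Step three: incubate 16 hr, 37 °C, 5% CO2. Step four: add ONE-Glo, wait 30 min, read luminescence.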
Potency means the concentration at half of the fitted maximal effect.

Structure (SMILES) | Potency
COc1cccc(C(=O)CSc2nccn2C)c1 | inconclusive: 23.1 µM [activator, partial curve]
CCOCCn1c(CN(Cc2ccccc2)Cc2ccccc2)nc2c1c(=O)[nH]c(=O)n2C | inactive
COc1ccccc1C(=O)ON=C1c2ccccc2-c2ccccc21 | inconclusive: 18.4 µM [inhibitor, partial curve, poor fit]
Cc1ccc(NC(=O)C2Oc3ccccc3OC2C)cc1 (stereo not drawn) | inconclusive: 20.6 µM [activator, single point]
COc1ccc(C(O)c2nc3ccccc3n2C)cc1OC (stereo not drawn) | active: 9.2 µM
Cc1cc(C)cc(N(CC(=O)NC(C)(C)C)C(=O)CCC(=O)Nc2nccs2)c1 | inactive
CCOC(=O)CSc1cc(C)c(C#N)c2nc3ccccc3n12 | inactive
Cc1ccc(-c2nnc(SCC(=O)CC(=O)Nc3ccccc3)n2C)cc1 | inactive
CCCCCn1c(N)c(-c2nc3ccccc3s2)c2c([N+](=O)[O-])nn(C)c(=O)c21 | active: 0.731 µM
CC(=O)NS(=O)(=O)c1ccc(NC(=O)COc2cccc3c2OC(C)(C)C3)cc1 | inactive
COc1cccc(CN2CCN(Cc3cc4ccccc4[nH]3)CC2CCO)c1 (stereo not drawn) | inactive
CCC(C(=O)NC1CCCC1)N(C(=O)c1snc(C(N)=O)c1N)c1ccc(C)cc1C (stereo not drawn) | inconclusive: 32.6 µM [inhibitor, single point]
COc1ccc(CC(NC(C)=O)C(=O)NC2CCN(c3nc(C)cc(C)c3C#N)CC2)c(OC)c1 (stereo not drawn) | inconclusive: 29.1 µM [inhibitor, single point]
O=C(NCc1ccco1)c1cccc(Nc2nc3ccc(Br)cc3[nH]2)c1 | inconclusive: 29.1 µM [inhibitor, single point]
O=C1NC(=S)N/C1=C/C=C/c1ccccc1 | inconclusive: 9.2 µM [activator, partial curve]
CCOC(=O)N/N=C(/C)c1ccc([N+](=O)[O-])o1 | inactive
O=C(COc1ccc(Cl)cc1)NCCS(=O)(=O)N1CCN(c2ccccc2F)CC1 | inconclusive: 23.1 µM [inhibitor, single point]
CCOn1c(=O)c(-c2cc3ccccc3o2)[n+]([O-])c2ccccc21 | inconclusive: 3.66 µM [activator, full curve]
N=c1n(CCN2CCCCC2)c2ccccc2n1CC(O)c1ccc(Cl)c(Cl)c1 (stereo not drawn) | inconclusive: 16.4 µM [inhibitor, single point]
COc1cc(C2CC(=O)n3c(nc4ccccc43)S2)cc(OC)c1OC (stereo not drawn) | inactive
COc1ccc(-c2cc(-c3nc4ccccn4c3NCc3ccccc3)ccc2OC)cc1 | active: 2.31 µM
CN(CC(=O)Nc1ccc2c(c1)CCC2)CC(=O)Nc1ccccc1Br | inconclusive: 16.4 µM [inhibitor, single point]
Fc1ccc(CN2CCN(c3ncnc4scc(-c5ccc(F)cc5)c34)CC2)cc1 | active: 20.6 µM
O=C(NC(=S)Nc1ccccc1O)c1ccc(Cl)cc1Cl | inconclusive: 20.6 µM [activator, partial curve]
Nc1nnnn1CC(=O)N/N=C/c1cc([N+](=O)[O-])ccc1O | inconclusive: 18.3 µM [inhibitor, single point]

Structure (SMILES) | Potency
Clc1ccc(-c2cn3cccnc3n2)cc1 | inconclusive: 20.6 µM [activator, partial curve]
O=C(Cn1nnc(-c2ccccc2Cl)n1)N1CCN(S(=O)(=O)c2ccc(Cl)cc2)CC1 | inconclusive: 23.1 µM [inhibitor, partial curve, poor fit]
CC(C)=C1C2CCC1C(C(=O)Nc1sc(C)c(-c3ccc(C(C)C)cc3)c1C(N)=O)C2C(=O)O (stereo not drawn) | inconclusive: 29.1 µM [inhibitor, single point]
O/N=C/C1=C(Cl)c2ccccc2CC1 | inactive
CCc1ccc(C(=O)Nc2nc3ccccc3[nH]2)cc1 | inconclusive: 0.146 µM [activator, full curve]
C/C(=N\NC(=O)c1cccs1)c1c(O)cc(C)oc1=O | inconclusive: 18.3 µM [activator, partial curve]
CN(C)c1cc[n+](CC(=O)Nc2c(Cl)cc(Cl)cc2Cl)cc1 | inconclusive: 18.3 µM [activator, single point]
O=C(Nc1ccc(-n2cccn2)cc1)C1CCCCN1Cc1cccc2c1OCO2 (stereo not drawn) | active: 8.2 µM
Cc1scc(C(=O)NNC(=O)CCC(=O)O)c1C | inactive
COc1ccc(-n2nc(C(=O)Nc3ccc(OC)c(OC)c3)c3c4ccccc4n(C)c3c2=O)cc1 | active: 8.2 µM
Cc1cccc(NC(=O)/C(C#N)=C/c2ccccc2O)n1 | inconclusive: 20.6 µM [activator, partial curve]
O=C(c1ccccc1)c1ccc(N2CCOCC2)c(F)c1 | inconclusive: 4.61 µM [activator, full curve]
COc1ccc(CCN=Cc2c(C)[nH]n(-c3ccc([N+](=O)[O-])cc3)c2=O)cc1OC | inactive
Cc1nn(-c2ccccc2)c(C)c1S(=O)(=O)O | inactive
c1ccc(-n2cnc3cc(NCc4cccs4)ccc32)cc1 | inconclusive: 2.31 µM [activator, partial curve]
Cc1ccc(-n2ncc3c(NNC(=O)Cc4ccccc4)ncnc32)cc1 | inactive
COc1c(Cl)cc(Br)c(OC)c1C(=O)NC(=O)Nc1nc(C)cc(C)n1 | inconclusive: 23.1 µM [inhibitor, single point]
O=C(O)CC1SC(=Nc2cccc(C(F)(F)F)c2)NC1=O (stereo not drawn) | inconclusive: 18.4 µM [activator, single point]
Cc1ccc2nc(SCc3nnc(-c4ccccc4)o3)[nH]c2c1 | inactive
N#CCS(=O)(=O)c1ccccc1 | inactive
COc1cc([N+](=O)[O-])ccc1NC(=O)NCC1CCN(Cc2ccc(Cl)cc2)CC1 | active: 23.1 µM
COc1ccc(C(=O)Nc2ccc(NC(=O)c3ccccc3F)cn2)cc1 | inconclusive: 29.1 µM [activator, partial curve, poor fit]
C=CCNC(=O)Nc1ccc(F)c(Cl)c1 | inactive
CCCC(=O)N1CCN(c2ccc([N+](=O)[O-])c(NC(C)c3ccccc3)c2)CC1 (stereo not drawn) | inconclusive: 20.6 µM [inhibitor, partial curve]
CC1CN(C(=O)/C=C/c2ccc3c(c2)OCO3)CC(C)O1 (stereo not drawn) | inactive

Structure (SMILES) | Potency
CCCN(CCC)C1=CC(=[N+]2CCCC2)CC(C)(C)C1 | inconclusive: 5.8 µM [inhibitor, partial curve, poor fit]
Cc1cccc(NC(=O)c2ccc3ccccc3n2)c1C | inconclusive: 5.17 µM [activator, partial curve]
COc1cc2nc(N(CCCN(C)C)C(=O)c3ccc(C(=O)c4ccccc4)cc3)sc2cc1OC | inconclusive: 4.61 µM [activator, single point]
CC(=O)c1cccc(OC(=O)c2cc(S(=O)(=O)N3CCOCC3)ccc2N2CCCC2)c1 | active: 9.2 µM
COC(=O)CCn1[nH]c(=O)c2ccccc2c1=O | inactive
Cc1ccccc1OCCC(=O)N1CCN(S(=O)(=O)c2ccc(Br)cc2)CC1 | inconclusive: 8.2 µM [inhibitor, single point]
COc1ncccc1-c1nnn(-c2ccccc2)n1 | inconclusive: 4.11 µM [activator, partial curve]
O=C(Nc1nc2c(s1)CCc1ccccc1-2)c1ccco1 | inconclusive: 2.06 µM [activator, full curve, poor fit]
O=C(N/N=C/C1CC=CCC1)c1cc2ccccc2cc1O (stereo not drawn) | inactive
Brc1ccccc1/C=N/Nc1ccccn1 | inconclusive: 20.6 µM [activator, partial curve]
COC(=O)COc1ccc(NC(=O)c2ccco2)cc1 | inconclusive: 20.6 µM [activator, partial curve, poor fit]
O=C(Nn1cnnc1)C(c1ccccc1)c1ccccc1 | inconclusive: 10.3 µM [inhibitor, single point]
CSc1nnc(-c2ccc(Cl)cc2Cl)o1 | inconclusive: 12.6 µM [activator, partial curve, poor fit]
CCn1c(/C=C\c2ccccc2C)nc2ccccc2c1=O | inactive
CC(Sc1nnnn1C)C(=O)Nc1nc(-c2ccc(F)c(F)c2)cs1 (stereo not drawn) | inconclusive: 23.1 µM [inhibitor, partial curve, poor fit]
COc1cc(-c2noc(C)c2C(=O)NCCCN2CCOCC2)cc(OC)c1OC | inconclusive: 29.1 µM [activator, single point]
O=C(CN1CCOCC1)Nc1ccccc1Sc1ccc(Cl)cc1 | inconclusive: 20.6 µM [inhibitor, single point]
Cc1ccc(C(=O)N/C(=C/c2ccc(-c3cccc([N+](=O)[O-])c3)o2)C(=O)NC(C)(C)C)cc1 | inconclusive: 13 µM [inhibitor, partial curve, poor fit]
C/C(CC(=O)Nc1ccc(OCc2ccccc2)cc1)=N\NC(=O)C(=O)Nc1ccc(C)c(Cl)c1 | inconclusive: 29.1 µM [activator, single point]
NCC(=O)Nc1ccc(Br)cc1 | inconclusive: 16.4 µM [inhibitor, partial curve, poor fit]
NC(=O)CC(NC(=O)c1cccc(Br)c1)c1ccc(NC2CCN(Cc3ccccc3)CC2)c([N+](=O)[O-])c1 (stereo not drawn) | inconclusive: 29.1 µM [activator, single point]
Cc1ccc(C(c2nnnn2C2CCCC2)N2CCc3ccccc32)cc1 (stereo not drawn) | inactive
CC[C@H](C)C(N)c1cn(C(CCCN=C(N)N)C(=O)N2CCNCC2)nn1 (stereo partly drawn) | inactive
